Earlier results in patent US20040106561A1, “Health supplement” (Novogen Research Pty. Ltd., priority 1992, published 2004).
At least one compound was matched to its structure with a doubt left.

System: oestrogen receptors
Conditions: in vitro and in vivo studies; descending order genistein, biochanin A, equol, daidzein, formononetin

In the case of `COc1ccc(-c2coc3cc(O)ccc3c2=O)cc1` [formononetin], the oestrogenic activity is listed as “oestrogenic activity”.
